Laboratory results published in patent US20090124688A1, “Prostaglandin reductase inhibitors” (priority 2006, published 2009).
At least one structure is not confirmed: it was looked up by name or label, or the drawing left a doubt.

System: PPAR-γ target genes
Test: Protein expression of adipogenesis-specific PPAR-γ target genes in 3T3-L1 cells
Assay type: cell-based, mouse
From the text: Also examined was the ability of 15-keto PGE2 to induce protein expression of adipogenesis-specific, PPAR-γ target genes, i.e., IRS-1and -2.

CN(CCOc1ccc(CC2SC(=O)NC2=O)cc1)c1ccccn1 (stereo not drawn) [BRL49653]
amount of IRS-1 protein: did not increase
expression of aP2, an adipocyte-specific marker (even in the absence of MIX): strongly induced
IRS-2 expression (in the presence of insulin and dexamethasone): dramatically increased
